Test results reported in the supplement of paper PMC10735217.
Where a name gives a salt, the structure may show the parent alone. The list shows a part of the results. This data set is noisy: repeats of one test often differ as much as different tests do.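 The human kidney-derived cells carry a stably integrated construct of eight TEAD-binding elements driving luciferase, read by luminescence in a drug-repurposing library screen. A compound counts as a hit when its signal is more than five robust Z scores above the plate mean.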

Test system: HEK293A TEAD-LUC reporter
Experiment: TEAD-luciferase reporter activity (YAP activation), robust Z score vs plate; higher = stronger YAP/TEAD activation
Details: 24 h

Row | Structure (SMILES) | TEAD-luciferase reporter activity (compound concentration: 200 nM) | TEAD-luciferase reporter activity (compound concentration: 2 uM) | TEAD-luciferase reporter activity (compound concentration: 10 uM)
1 | CC(C)(C)NCC(O)c1ccc(O)c(NC(N)=O)c1 (stereo unspecified) [carbuterol] | inactive: -0.851 | inactive: -0.261 | inactive: -0.699
2 | CC(C)(Oc1ccc(Cl)cc1)C(=O)O [moroxybrate] | inactive: -0.732 | inactive: 1.09 | inactive: -1.14
3 | CCn1cc(C(=O)NCCCO)c(=O)c2ccccc21 | active: 7.46 | inactive: 1.44 | inactive: 0.102
4 | CC(=O)N1CCC2(CC1)CN(C(=O)C1CCN(C)CC1)Cc1ccccc1O2 | inactive: -1.17 | – | inactive: 1.39
5 | Clc1cnn(CCCCN2CCN(c3ncccn3)CC2)c1 | inactive: -0.235 | inactive: -0.268 | inactive: 4.42
6 | N#Cc1cccc(CN2CCCC23Cc2ccccc2CNC3=O)c1 (stereo unspecified) | inactive: -1.61 | – | inactive: -1.35
7 | CCCCOC(=O)[C@@H](O)CN(CC(C)C)C(=O)N[C@@H](Cc1ccc2ccccc2c1)C(=O)O | inactive: 0.369 | inactive: -0.926 | inactive: -0.0821
8 | N=C(N)NCCC[C@@H](NC(=O)[C@@H](Cc1ccc(-c2ccccc2)cc1)NC(=O)[C@H](N)CCC(=O)O)C(=O)O | inactive: -0.443 | inactive: -0.634 | inactive: 1.49
9 | Cc1ccc(C(=O)CC(c2ccccc2)S(=O)(=O)c2ccccc2)cc1 (stereo unspecified) | inactive: -1.13 | inactive: 1.27 | inactive: 1.04
10 | O=C1N(CCN2CCC3(CC2)OCCO3)CCN1c1cc(Cl)cc(Cl)c1 | inactive: 0.72 | inactive: -0.352 | inactive: -0.0468
11 | O=C(O)CCCCCCNC(=O)C(CS)Cc1ccccc1 (stereo unspecified) | inactive: -0.959 | inactive: -0.411 | inactive: -1.29
12 | C[C@]12CCC(=O)C=C1CC[C@@H]1[C@@H]2[C@@H](O)C[C@@]2(C)[C@H]1CC[C@]2(O)C(=O)CO | inactive: 0.155 | – | inactive: 4.3
13 | CCCCCCCC/C=C\CCCCCCCC(=O)OCC(O)CO (stereo unspecified) [2,3-Dihydroxypropyl oleate] | inactive: 1.21 | inactive: -0.448 | inactive: -0.93
14 | O=C(c1ccccc1)c1ccc2n1CCC2C(=O)OCCCCO[N+](=O)[O-] (stereo unspecified) | inactive: -0.809 | inactive: 0.267 | inactive: -0.528
15 | Cc1ccc2c(c1)c1c(n2CCc2ccncc2)CCN(C)C1 | inactive: -0.121 | inactive: -1.65 | inactive: 1.82
16 | N=C(N)NCCC[C@H](NC(=O)[C@@H]1CCCN1C(=O)[C@H](N)Cc1ccccc1)C(=O)CCl | inactive: -1.82 | inactive: -1.43 | inactive: -1.55
17 | COC(=O)C1=C(C)NC(C)=C(C(=O)OC)C1c1cc([N+](=O)[O-])ccc1OCCCCNC[C@H](O)COc1ccccc1 | inactive: -0.768 | inactive: -1.3 | inactive: -1.06
18 | COc1ccc(NC(=O)Nc2ccc(F)cc2F)cc1-c1c(Br)cnn1C [nelotanserin] | inactive: 0.501 | inactive: -1.67 | inactive: -1.28
19 | CO[C@@H](Cc1ccc(NC(C)=O)cc1)C(=O)O | inactive: -0.881 | inactive: -1.34 | inactive: -0.034

A few values from the entries so far:
TEAD-luciferase reporter activity (compound concentration: 10 uM) with CC(=O)N1CCC2(CC1)CN(C(=O)C1CCN(C)CC1)Cc1ccccc1O2 reads inactive: 1.39
TEAD-luciferase reporter activity (compound concentration: 10 uM) with CC(C)(C)NCC(O)c1ccc(O)c(NC(N)=O)c1 (stereo unspecified) [carbuterol] reads inactive: -0.699
TEAD-luciferase reporter activity (compound concentration: 200 nM) with C[C@]12CCC(=O)C=C1CC[C@@H]1[C@@H]2[C@@H](O)C[C@@]2(C)[C@H]1CC[C@]2(O)C(=O)CO reads inactive: 0.155

The results go on.

Row | Structure (SMILES) | TEAD-luciferase reporter activity (compound concentration: 200 nM) | TEAD-luciferase reporter activity (compound concentration: 2 uM) | TEAD-luciferase reporter activity (compound concentration: 10 uM)
20 | CN(/N=N/N(C)c1ccccc1)c1ccccc1 | inactive: -0.736 | inactive: 0.997 | inactive: 4.7
21 | CC(C)=CCOc1cc(NC(=O)c2ccccn2)ccc1Cl | inactive: -1 | inactive: -1.76 | inactive: 0.755
22 | COc1c(C(=O)Nc2cc(C(F)(F)F)ccc2Oc2ccc(Cl)cc2C)ccc2ccccc12 | inactive: 0.231 | inactive: -0.157 | inactive: 1.6
23 | COc1cc2ncnc(Oc3cccc(NC(=O)Nc4cc(C(C)(C)C(F)(F)F)on4)c3)c2cc1OC | inactive: 1.94 | inactive: -1.73 | inactive: 0.84
24 | COc1ccccc1-c1ccc(CN2CCCCC2C(=O)NCc2ccc3c(c2)OCO3)cc1 (stereo unspecified) | active: 7.2 | – | inactive: 1.89
25 | CO[C@H]1COCC[C@H]1N[C@@H]1CC[C@@](C(=O)N2C[C@@H]3C[C@H]2CN3c2cc(C(F)(F)F)ncn2)(C(C)C)C1 | inactive: 1.28 | inactive: -0.399 | inactive: 0.34
26 | CCS(=O)(=O)c1ccc(/C=C(\C)c2ccc3c(c2)C(C)(C)CCC3(C)C)cc1 [Etarotene] | inactive: -0.249 | inactive: -1.06 | inactive: 2.32
27 | O=C(Cc1cccs1)N[C@@H]1C(=O)N2C(C(=O)[O-])=C(C[n+]3ccccc3)CS[C@H]12 [Cefaloridine] | inactive: 0.129 | inactive: 2 | inactive: 3.81
28 | C[C@H]1SC[C@@H](C(=O)N[C@H](Cc2c[nH]cn2)C(=O)N2CCC[C@H]2C(N)=O)NC1=O | inactive: -1.12 | inactive: 0.298 | inactive: 1.59
29 | CC(C)NC(=O)c1no[n+]([O-])c1C(=O)NC(C)C [ipramidil] | inactive: -2.75 | inactive: -0.432 | inactive: 1.6
30 | Nc1c(C(=O)NCc2ccc([N+](=O)[O-])cc2)ncn1[C@@H]1O[C@H](COP(=O)(O)O)[C@@H](O)[C@H]1O | active: 5.51 | inactive: 1.88 | inactive: -0.974
31 | CN(CCOc1ccc(CC(OCC(F)(F)F)C(=O)O)cc1)c1nc2ccccc2o1 (stereo unspecified) | inactive: 0.0382 | inactive: 2.21 | inactive: 2.72
32 | CC(CC1c2ccccc2CCc2ccccc21)CN(C)C (stereo unspecified) [Butriptyline hydrochloride] | inactive: 0.0482 | inactive: -1.37 | inactive: 0.461
33 | Cc1csc(-c2nnc(Nc3ccc(Oc4ncccc4-c4ccnc(N)n4)cc3)c3ccccc23)c1 | inactive: -1.52 | inactive: -0.844 | inactive: -2.04
34 | Cc1cccnc1NS(=O)(=O)c1ccc(/N=N/c2ccc(O)c(C(=O)O)c2)cc1 | inactive: -0.866 | inactive: 0.00741 | inactive: 1.14
35 | Nc1nc(O)c2ncn(COC(CO)CO)c2n1 [ganciclovir] | inactive: -0.524 | – | inactive: -1.64
36 | Nc1nc(O)c2ncn(COC(CO)CO)c2n1 [Ganciclovir sodium] | – | inactive: -1.41 | –
37 | COc1ccc(C(=O)c2cn(C(C)C)c3ncnc(N)c23)cc1NC(=O)Nc1ccc(Cl)cc1Cl | inactive: -2.2 | inactive: -1.58 | inactive: 0.371
38 | COc1cc2ncnc(Nc3cccc(Cl)c3F)c2cc1OC(=O)N1CCN(C)C[C@H]1C | inactive: -0.34 | inactive: 0.00782 | inactive: -0.44

Row | Structure (SMILES) | TEAD-luciferase reporter activity (compound concentration: 200 nM) | TEAD-luciferase reporter activity (compound concentration: 2 uM) | TEAD-luciferase reporter activity (compound concentration: 10 uM)
39 | Cc1cc(C)n(CCCCCSc2nc(-c3ccccc3)c(-c3ccccc3)[nH]2)n1 | inactive: 1.24 | inactive: -1.16 | inactive: -0.675
40 | C[C@H](CN(c1ccccc1)S(=O)(=O)Cc1ccccc1)N1CCC(NC(=O)Cc2ccc(C#N)cc2)CC1 | inactive: -0.874 | inactive: -1.36 | inactive: 0.244
41 | COc1ccc2c(c1)CC(C)N(CCc1ccc(N)cc1)CC2 (stereo unspecified) [Anilopam] | inactive: 0.606 | inactive: -0.397 | inactive: -0.467
42 | C=C[C@@H]1C[C@]1(NC(=O)[C@@H]1C[C@H](Oc2cc(-c3ccccc3)nc3cc(OC)ccc23)CN1C(=O)[C@@H](CC(=O)N1CCCCC1)C(C)(C)C)C(=O)NS(=O)(=O)C1CC1 | inactive: -0.2 | inactive: 0.15 | inactive: 1.63
43 | CC(=O)Nc1ccccc1 | inactive: -0.389 | inactive: -1.8 | inactive: -0.715
44 | Nc1cccc(-n2ccccc2=O)c1 | inactive: 2.42 | inactive: -0.931 | inactive: 2.65
45 | CC1(COc2ccc(CC3SC(=O)NC3=O)cc2)CCCCC1 (stereo unspecified) [ciglitazone] | inactive: -0.56 | inactive: 1.1 | active: 7.42
46 | Cc1ccc(C(=O)NC2CC2)cc1-n1ncc(C(=O)c2cccc(C#N)c2)c1N | inactive: 1.22 | inactive: -0.965 | inactive: -0.815
47 | O=C(O)CCCC(=O)N1Cc2ccccc2CC2(CCCN2CC2CCCCC2)C1 (stereo unspecified) | inactive: -1.32 | – | inactive: 2.81
48 | O=C(CCn1cnc2c(O)ncnc21)Nc1ccc(C(=O)O)cc1 [leteprinim potassium] | inactive: -1.81 | inactive: -0.397 | inactive: 2.06
49 | CCCCOC(=O)[C@H](C)NP(=O)(Oc1cccc2ccccc12)OC(C)[C@H]1O[C@@H](n2ccc(=O)[nH]c2=O)[C@](C)(O)[C@@H]1O (stereo partly specified) | inactive: 1.52 | inactive: -0.612 | inactive: 2.14
50 | O/N=C/c1cc[n+](COC[n+]2ccc(/C=N/O)cc2)cc1 [Obidoxime chloride] | inactive: -0.951 | inactive: 2.11 | inactive: 3.82
51 | CCOc1ccc(N=Nc2ccc(N)cc2N)cc1 | inactive: 2.13 | inactive: -1.95 | inactive: -0.45
52 | CS(=O)(=O)Nc1cccc(C(c2ccc(F)cc2)C(c2cccnc2)c2cccnc2)n1 (stereo unspecified) | inactive: 0.137 | inactive: 0.517 | inactive: 0.602
53 | O=C1CC2(CCCC2)CC(=O)N1CCCCN1CCN(c2ncccn2)CC1 [buspirone] | – | inactive: 1.43 | –
54 | O=C1CC2(CCCC2)CC(=O)N1CCCCN1CCN(c2ncccn2)CC1 [Buspar] | inactive: -0.604 | – | inactive: 0.078
55 | O=C1NCc2ccccc2CC12CCCN2Cc1cc(O)cc(O)c1 (stereo unspecified) | inactive: 0.72 | – | active: 11.7
56 | COc1ccc2cc([C@H](C)C(=O)OCCCCO[N+](=O)[O-])ccc2c1 [Naproxcinod] | inactive: -1.99 | inactive: 0.673 | inactive: 2.16
